Binding data for two molecules are collected here from publication doi:10.1101/2023.11.08.566199.

The assay has as its target YFP-tagged Solo (WT) (UniProt Q8TER5). In words: co-IP.

No constants are given. Whether binding was seen depends on the method and setting. In cells and extracts the contact can be indirect. Some entries that bind do so weakly or less than the wild type.

As to “mCherry-tagged wild-type (WT) PDZ-RhoGEF (from UniProt O15085 1-1522)”, the binding result is “binds”.

B1: mCherry-PRG deletion mutant (N-170) (domain or fragment, UniProt O15085 1-170)
chain: MSVRLPQSIDRLSSLSSLGDSAPERKSPSHHRQPSDASETTGLVQRCVIIQKDQHGFGFTVSGDRIVLVQSVRPGGAAMKAGVKEGDRIIKVNGTMVTNSSHLEVVKLIKSGAYVALTLLGSSPSSMGISGLQQDPSPAGAPRITSVIPSPPPPPPLPPPQRITGPKPLQ
On to B1, for which the binding entry is “binds”.
